Among the data in the supplement of paper PMC4635364 are neuronal differentiation score values, retold here.

The structures appear in SMILES notation. Structures can show the parent of a compound that is named as a salt. The list shows a part of the results. Single values are uncertain here, since repeats match poorly.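 Cells: ReNCell VM human fetal ventral-midbrain neural progenitors, differentiated mitogen-free. Blinded raters compared doublecortin-stained (early neurons) or tyrosine hydroxylase-stained (dopaminergic neurons) images with untreated wells, where 0 means no change. After repeats and both raters were averaged, compounds scoring 2 or above became hits for retesting.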

The first assay has as its system ReNCell VM. Kind of assay: neuronal differentiation score (DCX+ cell fraction vs untreated, manual image score) (score (-3 to 3)); higher = more neuronal differentiation. The note with it: library: LOPAC; 2 uM; 2 weeks.
Consider `O=C(c1cc(O)c(O)c([N+](=O)[O-])c1)c1ccccc1F`, for which the neuronal differentiation score was inactive: 0. The same measure, in the same setting: with `N[C@H](C(=O)O)[C@H]1C[C@@H]1C(=O)O` [(2S,1'S,2'S)-2-(carboxycyclopropyl)glycine] the figure was inactive: 0; with `Nc1ccc(-c2ccc3ccccc3n2)cc1` [BF-170 hydrochloride], inactive: -3. Regarding `NC(=O)NO` [Hydroxyurea], the neuronal differentiation score is inactive: 0.

Consider `COc1cc2ncnc(Nc3cccc(Cl)c3)c2cc1OC` [Tyrphostin AG 1478], for which the neuronal differentiation score is inactive: 0. Consider `C[C@](N)(Cc1ccc(O)c(O)c1)C(=O)O` [L-alpha-Methyl DOPA], for which the neuronal differentiation score is inactive: 0. `O=c1onc2n1-c1cc(Br)ccc1OC2`: the neuronal differentiation score was inactive: 0.

On to `CN1CCN(c2nc3cc(C(F)(F)F)ccc3n3cccc23)CC1`, for which the neuronal differentiation score is active: 2. In the case of `COc1ccc2c(c1)CC[C@@H]1[C@@H]2CC[C@]2(C)[C@@H](NCCCCCCN3C(=O)CCC3=O)CC[C@@H]12`, the neuronal differentiation score was inactive: 0.

The assay is the same for the next values; noted with them: library: Prestwick; 2 uM; 2 weeks.
Regarding `COC(=O)Nc1nc2cc(Sc3ccccc3)ccc2[nH]1` [Fenbendazole], the neuronal differentiation score is inactive: 0. Same read-out and setting: the value for `CC(C)(C)NC[C@H](O)COc1cccc2c1CCCC2=O` [(-) -Levobunolol hydrochloride] was inactive: 0. Same read-out and setting: the value for `C[C@]12CCC(=O)C=C1C=C[C@@H]1[C@@H]2CC[C@@]2(C)[C@H]1CC[C@@]21CCC(=O)O1` [Canrenone] was inactive: 1; that for `CCN[C@H]1C[C@H](C)S(=O)(=O)c2sc(S(N)(=O)=O)cc21` [Dorzolamide hydrochloride] was inactive: 0; that for `C#C[C@]1(O)CC[C@H]2[C@@H]3CCC4=CCCC[C@@H]4[C@H]3CC[C@@]21C` [Lynestrenol] was inactive: 0. Regarding `CCCCCCCCCCCCCCCC[N+](C)(C)CCN(Cc1ccc(OC)cc1)c1ncccn1` [Thonzonium bromide], the neuronal differentiation score is inactive: 0.

With `N=C(N)NC(=N)NCCc1ccccc1` [Phenformin hydrochloride], the neuronal differentiation score was inactive: 0. On the same count and under the same terms, the value for `O=C1OCCN1/N=C/c1ccc([N+](=O)[O-])o1` [Furazolidone] was inactive: 0.

The same assay, now with this note: library: Spectrum; 2 uM; 2 weeks.
As to `CC(=O)Oc1cc(-c2coc3cc(OC(C)=O)c(OC(C)=O)c(OC(C)=O)c3c2=O)cc(OC(C)=O)c1OC(C)=O`, the neuronal differentiation score is inactive: 0. The same measure, in the same setting: with `COc1cc(O)c2c(c1)C(=O)c1cc(C)cc(O)c1C2=O` the figure was inactive: 0; with `CCCCCCCCCCCCCCCCOP(=O)([O-])OCC[N+](C)(C)C`, inactive: 0; with `CCN(CC)CCNC(=O)c1cc(Br)c(N)cc1OC`, inactive: 0. Take `O=C1[C@H](CC[C@H](O)c2ccc(F)cc2)[C@@H](c2ccc(O)cc2)N1c1ccc(F)cc1`: the neuronal differentiation score was active: 3.

For the compound `COc1ccccc1OCC(O)COC(N)=O` (configuration not stated), the neuronal differentiation score was inactive: 0. Same read-out and setting: the value for `CC[C@@]1(O)C(=O)OCc2c1cc1n(c2=O)Cc2cc3c(CN(C)C)c(O)ccc3nc2-1` was inactive: 0. On the same count and under the same terms, the value for `CC[C@H]1OC(=O)[C@H](C)[C@@H](O[C@H]2C[C@@](C)(OC)[C@@H](O)[C@H](C)O2)[C@H](C)[C@@H](O[C@@H]2O[C@H](C)C[C@H](N(C)C)[C@H]2O)[C@](C)(O)C[C@@H](C)C(=O)[C@H](C)[C@@H](O)[C@]1(C)O` was inactive: 0. On to `COc1cc(C)c2c(c1C=O)Oc1c(c(C)c(O)c3c1C(O)OC3=O)OC2=O` (configuration not stated), for which the neuronal differentiation score was inactive: 0. The same measure, in the same setting: with `Nc1ccc(S(=O)(=O)NC(=O)c2ccccc2)cc1` the figure was inactive: 0. Same read-out and setting: with `Cc1ccc(C(=O)c2ccc(CC(=O)O)n2C)cc1` the figure was inactive: 0; with `NC1=NCCN1CC(=O)O`, inactive: 0; with `NS(=O)(=O)c1cc2c(cc1C(F)(F)F)NCNS2(=O)=O`, inactive: 0.

On to `Nc1ccc(S(=O)(=O)Nc2ncccn2)cc1`, for which the neuronal differentiation score is inactive: 0. Same read-out and setting: with `Nc1ccc(C(=O)O)cc1` the figure was inactive: 1.
